The chains behind the UniProt entries cited, without tags or fusion partners. Where a name states a change or a piece, a line headed by the entry shows the natural chain unless it says otherwise.
UniProt Q05639, whole entry: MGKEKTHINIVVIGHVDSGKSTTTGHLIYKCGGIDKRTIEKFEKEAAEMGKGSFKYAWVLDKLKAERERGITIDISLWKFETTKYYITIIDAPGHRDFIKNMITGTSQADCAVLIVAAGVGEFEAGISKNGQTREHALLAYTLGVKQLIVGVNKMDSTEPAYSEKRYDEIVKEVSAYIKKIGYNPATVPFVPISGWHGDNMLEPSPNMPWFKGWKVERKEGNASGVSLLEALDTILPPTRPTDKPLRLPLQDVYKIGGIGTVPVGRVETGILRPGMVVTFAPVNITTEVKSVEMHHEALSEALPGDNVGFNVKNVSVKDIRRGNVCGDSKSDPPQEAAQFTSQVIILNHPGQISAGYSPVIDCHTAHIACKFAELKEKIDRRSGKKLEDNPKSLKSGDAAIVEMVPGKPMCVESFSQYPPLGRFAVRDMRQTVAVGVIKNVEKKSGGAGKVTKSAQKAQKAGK
UniProt Q02086: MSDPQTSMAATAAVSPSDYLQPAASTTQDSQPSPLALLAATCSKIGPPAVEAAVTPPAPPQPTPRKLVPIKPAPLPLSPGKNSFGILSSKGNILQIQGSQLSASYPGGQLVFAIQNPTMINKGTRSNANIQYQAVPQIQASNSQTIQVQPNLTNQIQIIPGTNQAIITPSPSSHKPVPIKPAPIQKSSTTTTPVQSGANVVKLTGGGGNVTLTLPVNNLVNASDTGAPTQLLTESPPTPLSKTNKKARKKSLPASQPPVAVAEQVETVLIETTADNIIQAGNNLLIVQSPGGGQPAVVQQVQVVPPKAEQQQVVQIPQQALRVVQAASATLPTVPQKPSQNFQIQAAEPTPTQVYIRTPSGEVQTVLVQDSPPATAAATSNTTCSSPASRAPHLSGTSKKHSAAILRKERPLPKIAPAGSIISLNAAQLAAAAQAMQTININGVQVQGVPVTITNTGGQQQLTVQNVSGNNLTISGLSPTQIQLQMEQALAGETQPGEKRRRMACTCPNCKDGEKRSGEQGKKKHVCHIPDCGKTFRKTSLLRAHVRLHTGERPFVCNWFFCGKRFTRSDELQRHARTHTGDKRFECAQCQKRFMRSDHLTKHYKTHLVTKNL
UniProt Q13011: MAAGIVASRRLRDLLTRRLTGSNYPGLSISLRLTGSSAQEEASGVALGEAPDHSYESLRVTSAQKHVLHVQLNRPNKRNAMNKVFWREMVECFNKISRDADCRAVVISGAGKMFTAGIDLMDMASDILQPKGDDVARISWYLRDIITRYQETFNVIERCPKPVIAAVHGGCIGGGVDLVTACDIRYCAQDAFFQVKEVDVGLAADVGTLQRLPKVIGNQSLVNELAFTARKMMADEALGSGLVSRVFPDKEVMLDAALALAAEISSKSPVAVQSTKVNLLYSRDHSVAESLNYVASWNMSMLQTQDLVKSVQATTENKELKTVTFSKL
UniProt Q12982: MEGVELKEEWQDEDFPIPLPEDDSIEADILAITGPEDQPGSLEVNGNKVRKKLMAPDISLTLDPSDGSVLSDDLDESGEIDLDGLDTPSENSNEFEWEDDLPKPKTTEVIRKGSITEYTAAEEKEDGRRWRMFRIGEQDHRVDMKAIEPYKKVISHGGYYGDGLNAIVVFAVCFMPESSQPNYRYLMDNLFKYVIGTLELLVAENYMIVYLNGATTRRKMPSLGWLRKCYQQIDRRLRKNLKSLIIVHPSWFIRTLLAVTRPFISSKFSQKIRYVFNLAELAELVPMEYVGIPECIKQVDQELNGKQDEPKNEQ
UniProt Q04206, whole entry: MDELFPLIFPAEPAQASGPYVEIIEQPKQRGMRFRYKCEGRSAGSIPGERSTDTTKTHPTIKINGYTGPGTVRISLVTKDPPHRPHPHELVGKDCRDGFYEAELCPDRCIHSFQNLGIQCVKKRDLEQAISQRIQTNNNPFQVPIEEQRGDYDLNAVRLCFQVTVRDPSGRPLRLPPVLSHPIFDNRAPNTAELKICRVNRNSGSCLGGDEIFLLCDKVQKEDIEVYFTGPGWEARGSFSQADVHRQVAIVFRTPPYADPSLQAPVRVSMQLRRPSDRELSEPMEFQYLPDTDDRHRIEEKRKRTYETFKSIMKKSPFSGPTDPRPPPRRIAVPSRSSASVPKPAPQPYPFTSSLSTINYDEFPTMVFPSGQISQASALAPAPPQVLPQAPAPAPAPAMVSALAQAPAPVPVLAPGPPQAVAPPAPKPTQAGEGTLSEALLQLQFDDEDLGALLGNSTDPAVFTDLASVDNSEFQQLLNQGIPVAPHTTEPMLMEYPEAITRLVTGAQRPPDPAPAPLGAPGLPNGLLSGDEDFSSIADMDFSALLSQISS
UniProt Q01850: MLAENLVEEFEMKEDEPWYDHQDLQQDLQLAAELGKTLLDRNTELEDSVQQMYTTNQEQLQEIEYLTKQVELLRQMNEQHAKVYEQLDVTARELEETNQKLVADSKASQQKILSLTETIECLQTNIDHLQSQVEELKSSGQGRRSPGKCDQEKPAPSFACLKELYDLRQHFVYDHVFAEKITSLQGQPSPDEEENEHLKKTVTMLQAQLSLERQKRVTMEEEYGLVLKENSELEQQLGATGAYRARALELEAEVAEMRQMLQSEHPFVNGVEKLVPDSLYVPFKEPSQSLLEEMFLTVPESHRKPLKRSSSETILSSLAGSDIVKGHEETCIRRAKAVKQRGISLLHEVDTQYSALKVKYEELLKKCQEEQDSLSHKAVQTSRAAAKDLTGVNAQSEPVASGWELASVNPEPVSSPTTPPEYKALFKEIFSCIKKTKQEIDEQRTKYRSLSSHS
UniProt Q13123, whole entry: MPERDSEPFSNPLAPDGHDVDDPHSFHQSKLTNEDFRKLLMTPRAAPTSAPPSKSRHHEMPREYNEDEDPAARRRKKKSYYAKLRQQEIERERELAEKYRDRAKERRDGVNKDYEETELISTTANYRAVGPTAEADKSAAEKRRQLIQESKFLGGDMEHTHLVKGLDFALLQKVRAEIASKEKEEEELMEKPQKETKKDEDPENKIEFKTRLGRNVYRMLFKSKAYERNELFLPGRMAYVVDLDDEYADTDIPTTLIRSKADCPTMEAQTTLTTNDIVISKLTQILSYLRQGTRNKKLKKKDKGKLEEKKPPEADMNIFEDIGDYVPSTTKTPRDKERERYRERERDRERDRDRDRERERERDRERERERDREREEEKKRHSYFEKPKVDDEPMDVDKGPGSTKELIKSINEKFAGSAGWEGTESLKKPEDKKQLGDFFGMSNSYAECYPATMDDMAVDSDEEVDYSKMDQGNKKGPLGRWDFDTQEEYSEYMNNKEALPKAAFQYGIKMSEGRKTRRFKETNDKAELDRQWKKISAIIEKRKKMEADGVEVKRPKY
UniProt Q12846: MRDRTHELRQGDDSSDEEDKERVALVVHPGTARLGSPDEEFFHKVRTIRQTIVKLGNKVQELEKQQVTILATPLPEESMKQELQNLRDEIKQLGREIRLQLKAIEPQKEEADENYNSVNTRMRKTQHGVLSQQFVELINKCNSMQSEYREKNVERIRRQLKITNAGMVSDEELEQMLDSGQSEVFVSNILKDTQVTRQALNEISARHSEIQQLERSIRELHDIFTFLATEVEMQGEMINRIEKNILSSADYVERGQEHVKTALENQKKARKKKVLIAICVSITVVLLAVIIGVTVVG
UniProt Q07955, whole entry: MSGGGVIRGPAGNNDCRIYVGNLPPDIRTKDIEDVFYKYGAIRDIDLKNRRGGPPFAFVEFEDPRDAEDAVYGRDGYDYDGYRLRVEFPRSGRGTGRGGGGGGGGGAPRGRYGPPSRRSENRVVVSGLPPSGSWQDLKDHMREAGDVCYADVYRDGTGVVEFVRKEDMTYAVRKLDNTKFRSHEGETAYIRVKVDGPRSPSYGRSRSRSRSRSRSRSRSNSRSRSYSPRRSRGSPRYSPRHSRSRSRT
UniProt Q12952: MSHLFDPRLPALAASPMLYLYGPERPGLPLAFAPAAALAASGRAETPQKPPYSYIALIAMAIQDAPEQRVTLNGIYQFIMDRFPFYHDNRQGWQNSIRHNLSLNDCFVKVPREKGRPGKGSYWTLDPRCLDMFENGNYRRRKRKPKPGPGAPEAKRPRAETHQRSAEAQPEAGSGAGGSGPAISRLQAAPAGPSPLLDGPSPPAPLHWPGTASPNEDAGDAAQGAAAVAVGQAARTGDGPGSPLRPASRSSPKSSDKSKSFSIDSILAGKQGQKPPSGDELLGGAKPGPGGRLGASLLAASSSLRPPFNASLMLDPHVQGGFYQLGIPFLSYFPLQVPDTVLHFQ
UniProt Q13112, whole entry, looked up: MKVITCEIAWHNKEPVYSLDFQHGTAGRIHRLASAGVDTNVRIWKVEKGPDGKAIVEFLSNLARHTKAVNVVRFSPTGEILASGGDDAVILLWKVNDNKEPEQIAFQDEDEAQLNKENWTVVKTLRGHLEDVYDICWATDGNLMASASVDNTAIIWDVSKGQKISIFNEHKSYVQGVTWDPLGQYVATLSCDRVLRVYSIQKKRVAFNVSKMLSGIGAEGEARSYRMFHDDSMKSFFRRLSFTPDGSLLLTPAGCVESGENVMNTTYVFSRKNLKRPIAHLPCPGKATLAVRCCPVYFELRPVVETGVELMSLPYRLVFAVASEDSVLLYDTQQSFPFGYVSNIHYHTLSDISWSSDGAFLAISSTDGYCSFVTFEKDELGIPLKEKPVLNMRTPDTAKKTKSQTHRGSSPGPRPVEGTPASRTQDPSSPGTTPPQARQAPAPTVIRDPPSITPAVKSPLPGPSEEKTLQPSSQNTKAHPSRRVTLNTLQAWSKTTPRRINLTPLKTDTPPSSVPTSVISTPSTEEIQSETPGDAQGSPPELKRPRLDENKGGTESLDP
UniProt Q13148, whole entry: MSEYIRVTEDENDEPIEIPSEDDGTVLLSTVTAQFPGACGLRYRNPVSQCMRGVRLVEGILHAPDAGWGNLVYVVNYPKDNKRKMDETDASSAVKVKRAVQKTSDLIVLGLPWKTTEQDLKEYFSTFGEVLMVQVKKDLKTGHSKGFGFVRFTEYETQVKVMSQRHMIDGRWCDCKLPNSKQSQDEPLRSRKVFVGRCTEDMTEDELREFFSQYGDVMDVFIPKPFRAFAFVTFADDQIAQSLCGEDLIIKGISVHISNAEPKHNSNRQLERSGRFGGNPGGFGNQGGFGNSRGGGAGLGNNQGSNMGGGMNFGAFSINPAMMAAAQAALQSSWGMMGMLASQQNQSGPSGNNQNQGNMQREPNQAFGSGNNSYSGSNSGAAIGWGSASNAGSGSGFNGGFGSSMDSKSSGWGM
UniProt Q12792, whole entry: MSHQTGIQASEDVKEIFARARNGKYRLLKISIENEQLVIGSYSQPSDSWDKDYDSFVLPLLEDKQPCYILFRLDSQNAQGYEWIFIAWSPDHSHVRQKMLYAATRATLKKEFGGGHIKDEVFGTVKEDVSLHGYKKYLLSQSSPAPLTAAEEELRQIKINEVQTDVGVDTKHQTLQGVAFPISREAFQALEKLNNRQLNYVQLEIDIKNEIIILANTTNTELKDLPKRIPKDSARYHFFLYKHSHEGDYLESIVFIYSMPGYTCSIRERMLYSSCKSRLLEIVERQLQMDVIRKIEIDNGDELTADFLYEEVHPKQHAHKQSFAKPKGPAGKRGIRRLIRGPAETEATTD
UniProt Q03014: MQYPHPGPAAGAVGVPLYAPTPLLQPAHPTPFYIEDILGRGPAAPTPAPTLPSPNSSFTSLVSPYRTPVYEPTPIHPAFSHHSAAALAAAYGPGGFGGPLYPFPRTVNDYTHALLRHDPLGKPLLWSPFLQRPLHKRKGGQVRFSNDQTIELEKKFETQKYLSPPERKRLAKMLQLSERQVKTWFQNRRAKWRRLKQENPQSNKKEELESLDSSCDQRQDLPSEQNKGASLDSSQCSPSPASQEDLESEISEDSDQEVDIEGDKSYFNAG
UniProt Q08881: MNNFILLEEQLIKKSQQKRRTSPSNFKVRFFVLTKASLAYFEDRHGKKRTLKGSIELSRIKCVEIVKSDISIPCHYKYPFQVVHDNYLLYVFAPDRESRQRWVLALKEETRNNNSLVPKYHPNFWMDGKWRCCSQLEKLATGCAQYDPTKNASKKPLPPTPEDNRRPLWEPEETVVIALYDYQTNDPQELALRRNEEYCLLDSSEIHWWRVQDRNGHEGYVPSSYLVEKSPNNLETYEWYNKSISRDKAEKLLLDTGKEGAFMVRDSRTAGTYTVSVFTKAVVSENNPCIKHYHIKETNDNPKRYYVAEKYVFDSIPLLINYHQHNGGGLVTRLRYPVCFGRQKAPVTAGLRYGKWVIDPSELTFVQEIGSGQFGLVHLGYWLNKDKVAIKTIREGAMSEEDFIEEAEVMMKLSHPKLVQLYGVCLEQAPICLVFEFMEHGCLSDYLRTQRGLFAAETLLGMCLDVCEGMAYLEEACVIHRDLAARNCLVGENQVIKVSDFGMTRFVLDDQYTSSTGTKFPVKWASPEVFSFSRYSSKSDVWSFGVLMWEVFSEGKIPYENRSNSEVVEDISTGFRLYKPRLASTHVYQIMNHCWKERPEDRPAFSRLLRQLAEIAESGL
UniProt Q01658: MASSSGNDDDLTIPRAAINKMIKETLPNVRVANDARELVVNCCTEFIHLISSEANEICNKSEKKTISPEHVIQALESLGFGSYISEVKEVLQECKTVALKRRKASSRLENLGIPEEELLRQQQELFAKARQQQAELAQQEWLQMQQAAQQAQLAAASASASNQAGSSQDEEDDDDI

Some of the results follow. Most entries show no effect beyond the scatter of the controls.
Each target was assayed with CN[C@@H]1C[C@H]2O[C@@](C)([C@@H]1OC)n1c3ccccc3c3c4c(c5c6ccccc6n2c5c31)C(=O)NC4 [staurosporine] (assay: log2 fold change of tryptic peptide abundance, ligand vs vehicle (limited proteolysis) (log2 ratio); higher = more trypsin-susceptible (destabilized)). Conditions: ligand concentration: 20 uM; sample: K562 cleared lysate; digestion: 4 min, 22 C (HT-PELSA RT4min, Orbitrap Astral).
“TAF10 (peptide sequence: AGFEASDPR, peptide start residue: 142) (UniProt Q12962)” was tested, and the log2 fold change was 0.0791.
Target “EEF1A2 (peptide sequence: GITIDISLWKFETTK, peptide start residue: 70) (UniProt Q05639)” has a log2 fold change of 0.239.
“SP2 (peptide sequence: APHLSGTSK, peptide start residue: 391) (UniProt Q02086)” showed a log2 fold change of 0.273.
Target “KIF5A (peptide sequence: SYVPYRDSK, peptide start residue: 275) (UniProt Q12840)” has a log2 fold change of 0.514.
“GALNT2 (peptide sequence: NFYYAAVPSAR, peptide start residue: 394) (UniProt Q10471)” showed a log2 fold change of -0.241.
“ECH1 (peptide sequence: VNLLYSR, peptide start residue: 277) (UniProt Q13011)” gave a log2 fold change of 0.253.
“BNIP2 (peptide sequence: YLMDNLFK, peptide start residue: 185) (UniProt Q12982)” was tested, and the log2 fold change was 0.21.
Work on “HSPA14 (peptide sequence: SFKHDVR, peptide start residue: 246) (UniProt Q0VDF9)” yielded a log2 fold change of 0.496.
Target “RELA (peptide sequence: DPSGRPLR, peptide start residue: 167) (UniProt Q04206)” has a log2 fold change of 0.196.
“MDM2 (peptide sequence: NGCIVHGK, peptide start residue: 447) (UniProt Q00987)” was tested, and the log2 fold change was 0.536.
In the case of “EP300 (peptide sequence: QWHEDITQDLR, peptide start residue: 570) (UniProt Q09472)”, the log2 fold change was -0.691.
With “CDR2 (peptide sequence: EIFSCIKK, peptide start residue: 428) (UniProt Q01850)” the log2 fold change was 0.344.
Target “TJP1 (peptide sequence: FLKPVELR, peptide start residue: 1707) (UniProt Q07157)” has a log2 fold change of 0.224.
Work on “BNIP1 (peptide sequence: AELLQGGDLLR, peptide start residue: 112) (UniProt Q12981)” yielded a log2 fold change of -0.219.
For “PLP2 (peptide sequence: HTAAPTDPADGPV, peptide start residue: 140) (UniProt Q04941)”, the log2 fold change was -0.0309.
In the case of “NFATC3 (peptide sequence: VHIPQPSGK, peptide start residue: 570) (UniProt Q12968)”, the log2 fold change was 0.629.
With “IK (peptide sequence: AVGPTAEADKSAAEK, peptide start residue: 128) (UniProt Q13123)” the log2 fold change was -0.163.
“TLE3 (peptide sequence: KAEEKDSLSR, peptide start residue: 228) (UniProt Q04726)” showed a log2 fold change of 0.487.
For “STX4 (peptide sequence: NILSSADYVER, peptide start residue: 244) (UniProt Q12846)”, the log2 fold change was -0.146.
“CRYZ (peptide sequence: VHACGVNPVETYIR, peptide start residue: 42) (UniProt Q08257)” was tested, and the log2 fold change was -0.509.
“CAP1 (peptide sequence: HAEMVHTGLK, peptide start residue: 72) (UniProt Q01518)” gave a log2 fold change of 0.62.
“UniProt P98168 (peptide sequence: SSLYIHSK, peptide start residue: 433)” gave a log2 fold change of 0.306.
For “HTD2 (peptide sequence: KTVMEGWVK, peptide start residue: 151) (UniProt P86397)”, the log2 fold change was 0.191.
With “UniProt Q07955 (peptide sequence: GRYGPPSR, peptide start residue: 110)” the log2 fold change was 0.43.
In the case of “UniProt Q12980 (peptide sequence: GRHHLEEIMYNENTR, peptide start residue: 522)”, the log2 fold change was 0.84.
“UniProt Q12952 (peptide sequence: KPKPGPGAPEAK, peptide start residue: 144)” was tested, and the log2 fold change was 0.253.
In the case of “EIF4G1 (peptide sequence: RGGPPGPPISR, peptide start residue: 1032) (UniProt Q04637)”, the log2 fold change was 0.439.
With “CHAF1B (peptide sequence: QAPAPTVIR, peptide start residue: 439) (UniProt Q13112)” the log2 fold change was 0.595.
Work on “TARDBP (peptide sequence: FGGNPGGFGNQGGFGNSR, peptide start residue: 276) (UniProt Q13148)” yielded a log2 fold change of -0.438.
“RPL18 (peptide sequence: MKLPGRENK, peptide start residue: 70) (UniProt Q07020)” showed a log2 fold change of 0.49.
Target “UniProt Q03164 (peptide sequence: VKTQGQDSLEAQLSSLESSRR, peptide start residue: 2789)” has a log2 fold change of -0.36.
For “TWF1 (peptide sequence: HQTLQGVAFPISR, peptide start residue: 172) (UniProt Q12792)”, the log2 fold change was 0.254.
For “PPFIA1 (peptide sequence: FPMADGHTDSYSTSAVLR, peptide start residue: 536) (UniProt Q13136)”, the log2 fold change was -0.462.
“FOXK2 (peptide sequence: TPLGPLSSR, peptide start residue: 360) (UniProt Q01167)” showed a log2 fold change of 0.154.
“ARHGAP5 (peptide sequence: IQITILSYHSSIGVR, peptide start residue: 829) (UniProt Q13017)” gave a log2 fold change of 0.415.
For “ELAVL2 (peptide sequence: AINTLNGLR, peptide start residue: 77) (UniProt Q12926)”, the log2 fold change was 0.0452.
With “HHEX (peptide sequence: FSNDQTIELEK, peptide start residue: 144) (UniProt Q03014)” the log2 fold change was -0.279.
“ITK (peptide sequence: AEKLLLDTGK, peptide start residue: 249) (UniProt Q08881)” showed a log2 fold change of -0.00957.
Target “BAX (peptide sequence: GGGPTSSEQIMK, peptide start residue: 10) (UniProt Q07812)” has a log2 fold change of 0.941.
“DR1 (peptide sequence: MIKETLPNVR, peptide start residue: 21) (UniProt Q01658)” gave a log2 fold change of 0.152.
